From patent publication US20070271620A1, “Animal model for type II diabetes mellitus and Syndrome X and methods and uses thereof” (priority 2005, published 2007) come the findings set out here.

The subject of the data set is STZ (130 mg/kg) diabetic pigs. Nature of the data set: Two-week oral metformin treatment of STZ diabetic pigs: postprandial plasma glucose and insulin, body weight, urinary glucose excretion. Format: in vivo, pig. As to the method:
Protocol 5: insulin-mediated whole body glucose disposal, after a two-week placebo or metformin (twice 1.5 g per day) oral treatment period under conditions of iso-energetic feeding, was studied with the hyperinsulinemic (2 mU/kg/minute) euglycemic clamp technique in 14 STZ (130 mg/kg) diabetic pigs.
Fasting blood samples were taken before the start of hyperinsulinemic clamp experiments and postprandial blood samples were taken two to three hours after a morning meal in the week following a clamp study.
Plasma insulin concentration was measured using a Delfia assay (test kit No. B080-1101 by Perkin Elmer Life Sciences, trust by Wallac Oy, Turku, Finland). This specific pig insulin assay was validated using pig insulin standards. Plasma and urine glucose concentrations were analyzed enzymically on an autoanalyzer of Radiometer (ABL and AML, Copenhagen, Denmark). Urine was collected in buckets containing 0.5 grams Halamid-d (sodium-p-toluenesulfonchloramide, Akzo Nobel Chemicals, Amersfoort, NL) to prevent microbial breakdown of glucose. Urine volume was registered over a given interval in order to calculate the rate of urinary glucose excretion. Urine samples (0.5 mL) were stored at −20° C. for later glucose analyses. Ketones (acetoacetic acid) were determined in fresh urine by a reagent strip test (Ketostix, Bayer Diagnostics, Mijdrecht, NL).

In the case of `CN(C)C(=N)N=C(N)N` [Metformin, metformin], the “Body weight at end of treatment” value (metformin twice 1.5 g per day oral, two weeks) was 40.7 ± 1.8 kg. In addition, under “two-week metformin treatment, iso-energetic feeding”, the Body weight gain result is given as “+4.4±1.1 kg”.
